The supplement of paper PMC12067093, “Discovery and optimisation of a covalent ligand for TRIM25 and its application to targeted protein ubiquitination” (Chemical Science, 2025)
This is one part of the list.

Amino acid sequences for entries named in this document (tags omitted). A change or cut given only in a name is not applied to a line headed by its entry.
UniProt Q7Z6M4: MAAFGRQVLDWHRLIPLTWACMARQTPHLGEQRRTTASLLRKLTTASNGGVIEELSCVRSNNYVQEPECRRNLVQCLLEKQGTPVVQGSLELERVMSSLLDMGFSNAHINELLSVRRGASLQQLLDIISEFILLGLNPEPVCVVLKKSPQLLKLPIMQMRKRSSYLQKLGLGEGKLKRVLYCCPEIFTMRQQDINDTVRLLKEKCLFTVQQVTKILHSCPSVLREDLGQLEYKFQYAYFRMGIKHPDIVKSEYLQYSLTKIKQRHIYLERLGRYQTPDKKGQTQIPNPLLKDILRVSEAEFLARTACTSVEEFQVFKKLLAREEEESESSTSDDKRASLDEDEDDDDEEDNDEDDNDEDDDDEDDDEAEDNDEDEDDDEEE
UniProt Q9Y6C9: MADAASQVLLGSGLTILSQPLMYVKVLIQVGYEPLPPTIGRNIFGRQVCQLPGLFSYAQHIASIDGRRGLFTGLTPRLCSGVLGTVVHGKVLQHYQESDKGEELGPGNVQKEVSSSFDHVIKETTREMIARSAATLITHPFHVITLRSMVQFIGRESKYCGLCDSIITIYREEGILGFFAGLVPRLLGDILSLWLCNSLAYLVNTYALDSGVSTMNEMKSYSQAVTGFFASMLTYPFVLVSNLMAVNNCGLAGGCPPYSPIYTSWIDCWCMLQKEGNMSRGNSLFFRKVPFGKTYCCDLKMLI
UniProt P20585: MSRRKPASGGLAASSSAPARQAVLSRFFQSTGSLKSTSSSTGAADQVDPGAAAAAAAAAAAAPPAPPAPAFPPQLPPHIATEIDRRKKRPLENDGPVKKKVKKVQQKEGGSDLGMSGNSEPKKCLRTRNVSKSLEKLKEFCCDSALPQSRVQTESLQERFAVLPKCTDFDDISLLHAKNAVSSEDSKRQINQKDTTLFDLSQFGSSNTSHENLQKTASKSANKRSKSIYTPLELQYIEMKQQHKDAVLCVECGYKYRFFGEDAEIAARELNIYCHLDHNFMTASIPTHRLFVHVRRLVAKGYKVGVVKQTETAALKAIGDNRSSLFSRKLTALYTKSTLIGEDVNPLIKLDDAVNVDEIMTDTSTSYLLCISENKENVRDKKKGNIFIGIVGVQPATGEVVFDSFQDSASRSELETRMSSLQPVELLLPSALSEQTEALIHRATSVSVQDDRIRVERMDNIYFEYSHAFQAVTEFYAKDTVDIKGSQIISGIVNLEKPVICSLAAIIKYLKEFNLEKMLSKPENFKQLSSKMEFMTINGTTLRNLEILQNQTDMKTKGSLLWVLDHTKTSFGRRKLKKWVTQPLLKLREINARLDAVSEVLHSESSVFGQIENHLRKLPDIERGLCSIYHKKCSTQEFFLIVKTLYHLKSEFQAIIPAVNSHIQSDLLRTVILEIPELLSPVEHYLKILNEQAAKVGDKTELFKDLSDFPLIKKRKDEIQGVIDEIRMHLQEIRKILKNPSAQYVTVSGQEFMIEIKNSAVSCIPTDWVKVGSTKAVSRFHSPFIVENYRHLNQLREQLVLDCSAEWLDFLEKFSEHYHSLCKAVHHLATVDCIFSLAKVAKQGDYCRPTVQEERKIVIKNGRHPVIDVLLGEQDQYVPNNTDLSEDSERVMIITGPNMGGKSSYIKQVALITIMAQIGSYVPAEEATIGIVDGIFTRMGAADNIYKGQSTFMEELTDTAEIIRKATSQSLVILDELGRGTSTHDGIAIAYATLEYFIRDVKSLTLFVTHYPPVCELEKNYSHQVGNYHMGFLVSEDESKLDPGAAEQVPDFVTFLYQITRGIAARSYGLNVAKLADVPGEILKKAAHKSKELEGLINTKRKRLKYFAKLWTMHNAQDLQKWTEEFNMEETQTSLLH
UniProt P35579, whole entry, looked up: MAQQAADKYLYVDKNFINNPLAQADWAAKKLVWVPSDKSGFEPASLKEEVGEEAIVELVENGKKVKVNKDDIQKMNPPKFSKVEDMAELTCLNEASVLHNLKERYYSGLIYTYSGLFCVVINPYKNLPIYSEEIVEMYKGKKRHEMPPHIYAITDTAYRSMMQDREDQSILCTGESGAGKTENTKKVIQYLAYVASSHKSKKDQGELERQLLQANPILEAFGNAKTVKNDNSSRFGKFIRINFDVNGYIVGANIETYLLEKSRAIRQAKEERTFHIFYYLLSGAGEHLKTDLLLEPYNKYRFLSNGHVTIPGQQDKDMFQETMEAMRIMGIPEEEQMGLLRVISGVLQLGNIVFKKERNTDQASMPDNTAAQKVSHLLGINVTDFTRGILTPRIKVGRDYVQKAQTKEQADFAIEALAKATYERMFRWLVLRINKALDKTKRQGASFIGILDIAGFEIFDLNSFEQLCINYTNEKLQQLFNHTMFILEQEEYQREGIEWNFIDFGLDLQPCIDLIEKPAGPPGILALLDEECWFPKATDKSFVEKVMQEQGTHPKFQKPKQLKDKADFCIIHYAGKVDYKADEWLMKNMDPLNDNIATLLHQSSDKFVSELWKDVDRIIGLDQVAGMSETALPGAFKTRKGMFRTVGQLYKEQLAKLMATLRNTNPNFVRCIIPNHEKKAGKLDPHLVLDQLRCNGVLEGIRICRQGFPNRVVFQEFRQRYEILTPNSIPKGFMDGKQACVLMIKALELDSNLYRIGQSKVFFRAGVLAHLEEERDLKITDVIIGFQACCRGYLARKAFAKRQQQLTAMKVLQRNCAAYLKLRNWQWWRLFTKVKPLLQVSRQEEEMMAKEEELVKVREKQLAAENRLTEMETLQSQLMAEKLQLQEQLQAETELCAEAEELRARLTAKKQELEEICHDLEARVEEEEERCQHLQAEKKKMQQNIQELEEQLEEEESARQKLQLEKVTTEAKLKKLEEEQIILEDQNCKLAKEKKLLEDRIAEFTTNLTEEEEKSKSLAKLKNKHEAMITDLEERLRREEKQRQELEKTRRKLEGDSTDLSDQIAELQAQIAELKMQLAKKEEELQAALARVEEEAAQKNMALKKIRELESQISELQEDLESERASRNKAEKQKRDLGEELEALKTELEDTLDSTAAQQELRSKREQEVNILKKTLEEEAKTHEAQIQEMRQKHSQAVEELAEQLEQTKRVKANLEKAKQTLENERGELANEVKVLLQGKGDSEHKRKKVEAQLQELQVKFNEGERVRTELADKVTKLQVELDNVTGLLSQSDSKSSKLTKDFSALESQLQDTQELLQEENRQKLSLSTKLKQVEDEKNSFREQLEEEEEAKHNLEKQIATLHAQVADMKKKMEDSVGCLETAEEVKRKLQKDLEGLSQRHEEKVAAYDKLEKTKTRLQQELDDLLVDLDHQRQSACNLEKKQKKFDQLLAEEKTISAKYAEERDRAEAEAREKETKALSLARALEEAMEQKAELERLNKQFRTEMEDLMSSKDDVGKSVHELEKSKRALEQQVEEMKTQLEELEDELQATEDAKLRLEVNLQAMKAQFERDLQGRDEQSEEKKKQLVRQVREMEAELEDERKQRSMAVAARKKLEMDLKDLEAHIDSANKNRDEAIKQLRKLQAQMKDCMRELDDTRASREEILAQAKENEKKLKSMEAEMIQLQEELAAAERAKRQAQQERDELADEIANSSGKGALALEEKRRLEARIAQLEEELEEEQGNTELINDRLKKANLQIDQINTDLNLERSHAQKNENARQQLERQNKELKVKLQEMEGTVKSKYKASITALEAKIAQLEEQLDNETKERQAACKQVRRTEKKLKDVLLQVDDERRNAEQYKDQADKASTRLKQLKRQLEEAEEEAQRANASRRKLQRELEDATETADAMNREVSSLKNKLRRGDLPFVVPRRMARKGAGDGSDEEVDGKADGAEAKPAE

Compound: Cc1cc(ccc1-c1ccccc1)C(=O)N1CCCN(CC1)C(=O)CCl [compound 10]
Experiment: probe-labelled cysteine peptide fold change vs DMSO (competition) (log2 fold change); higher = less target engagement (more negative = stronger competition)
Conditions: THP-1, incubation time: 4 h
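Note: competitive profiling in live THP-1 cells: cysteine peptides tagged with an iodoacetamide desthiobiotin (IA-DTB) probe, intensity after compound treatment relative to DMSO-treated cells.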

Target | probe-labelled cysteine peptide fold change (10 µM) | probe-labelled cysteine peptide fold change (50 µM)
MTERF4_Q7Z6M4_219_ILHSCPSVLR (UniProt Q7Z6M4) | 0.247 | 0.351
MTOR_P42345_2243_YAVIPLSTNSGLIGWVPHCDTLHALIR (UniProt P42345) | -0.0623 | -0.0381
MTCH2_Q9Y6C9_49_QVCQLPGLFSYAQHIASIDGRR (UniProt Q9Y6C9) | -0.229 | -0.382
MSH3_P20585_166_CTDFDDISLLHAK (UniProt P20585) | -0.186 | -0.171
MYCBP2_O75592_4544_YAYYVCYK (UniProt O75592) | -0.0266 | -0.193
MYH9_P35579_931_CQHLQAEK (UniProt P35579) | 0.122 | 0.114
